Assay results reported in article PMC8368100, “Structural basis for ALK2/BMPR2 receptor complex signaling through kinase domain oligomerization” (Nature Communications, 2021).
No constants are given. Whether binding was seen depends on the method and setting. Some results given as binding are weak or reduced against the parent protein; the word gives no strength.

Chains of the proteins cited; added tags and fusions are not shown. Lines headed by an entry give the natural chain unless they say otherwise; changes in a name come on top. A line that says so, or that is headed by a name, gives the form on record, which may keep a tag or linker. Residues count along the entry.
BMPR2 kinase domain (BMPR2^KD, residues 189-529) (Q13873, residues 189-529): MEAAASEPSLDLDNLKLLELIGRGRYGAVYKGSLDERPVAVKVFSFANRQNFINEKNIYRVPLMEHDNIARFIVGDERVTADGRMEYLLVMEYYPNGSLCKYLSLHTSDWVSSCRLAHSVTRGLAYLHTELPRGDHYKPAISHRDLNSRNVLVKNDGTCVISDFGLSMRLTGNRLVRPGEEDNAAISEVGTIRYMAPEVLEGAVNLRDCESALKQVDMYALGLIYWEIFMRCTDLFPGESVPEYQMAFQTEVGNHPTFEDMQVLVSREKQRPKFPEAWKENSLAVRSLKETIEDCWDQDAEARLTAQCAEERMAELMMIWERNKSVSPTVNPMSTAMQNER
BMPR2^KD-EDE (BMPR2 kinase domain E464R/D487R/E489R) (Q13873, form named): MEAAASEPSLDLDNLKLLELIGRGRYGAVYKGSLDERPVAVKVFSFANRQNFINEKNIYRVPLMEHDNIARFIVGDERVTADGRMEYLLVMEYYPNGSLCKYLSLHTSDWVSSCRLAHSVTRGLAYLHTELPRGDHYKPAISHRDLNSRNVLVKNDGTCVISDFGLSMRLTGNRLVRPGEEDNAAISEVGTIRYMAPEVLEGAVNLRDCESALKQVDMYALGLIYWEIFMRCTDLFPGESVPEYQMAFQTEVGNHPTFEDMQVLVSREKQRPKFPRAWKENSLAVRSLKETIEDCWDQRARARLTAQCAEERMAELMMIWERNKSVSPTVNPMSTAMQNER
BMPR2^KD-D485G (BMPR2 kinase domain with the PAH mutation D485G) (Q13873, form named): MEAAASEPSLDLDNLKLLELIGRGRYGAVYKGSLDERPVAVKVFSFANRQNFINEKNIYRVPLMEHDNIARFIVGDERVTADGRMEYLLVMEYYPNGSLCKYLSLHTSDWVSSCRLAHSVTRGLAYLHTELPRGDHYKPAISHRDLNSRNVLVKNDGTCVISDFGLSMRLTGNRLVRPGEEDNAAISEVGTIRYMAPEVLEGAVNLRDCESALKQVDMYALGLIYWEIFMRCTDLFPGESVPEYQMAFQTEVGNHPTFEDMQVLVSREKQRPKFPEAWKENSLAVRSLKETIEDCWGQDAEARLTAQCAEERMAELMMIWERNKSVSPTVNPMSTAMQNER
BMPR2^KD-EED (BMPR2 kinase domain E478R/E481R/D482R) (Q13873, form named): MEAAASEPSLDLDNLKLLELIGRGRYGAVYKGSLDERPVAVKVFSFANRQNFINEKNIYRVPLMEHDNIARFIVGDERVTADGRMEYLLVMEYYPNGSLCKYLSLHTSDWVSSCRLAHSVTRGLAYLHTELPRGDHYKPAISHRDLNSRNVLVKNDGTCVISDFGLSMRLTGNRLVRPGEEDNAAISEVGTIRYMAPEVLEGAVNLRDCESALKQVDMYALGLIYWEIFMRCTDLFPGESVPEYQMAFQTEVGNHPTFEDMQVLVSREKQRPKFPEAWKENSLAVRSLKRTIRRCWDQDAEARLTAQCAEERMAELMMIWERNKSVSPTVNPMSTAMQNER

Tests used:
[1] = molecular target: BMPR2 kinase domain (BMPR2^KD, residues 189-529) (human) (UniProt Q13873); test: SEC; Superdex 200 Increase 10/300 GL; kinase domains alone or as a stoichiometric mixture; also run in buffers with increasing NaCl; both purified
[2] = molecular target: BMPR2 kinase domain (BMPR2^KD, residues 189-529) (human) (UniProt Q13873); test: SEC-SAXS; kinase domains alone or in complex at 100 µM in 20 mM HEPES pH 8.0, 100 mM NaCl, 0.1 mM TCEP; twin-tandem Superdex 200 3.2/30 GL columns, room temperature; both purified
[3] = molecular target: BMPR2 kinase domain (BMPR2^KD, residues 189-529) (human) (UniProt Q13873); test: HDX-MS; each kinase alone against an equimolar solution of both; 6.3 µM kinase, 96% D2O, 50 mM HEPES pD 7.5, 50 mM KCl, 5 mM DTT, 23 °C; 15, 180, 900 s; pepsin digestion; both purified
[4] = molecular target: ALK2 kinase domain (ALK2^KD, residues 201-499) (human) (UniProt Q04771); test: SEC-SAXS; kinase domains alone or in complex at 100 µM in 20 mM HEPES pH 8.0, 100 mM NaCl, 0.1 mM TCEP; twin-tandem Superdex 200 3.2/30 GL columns, room temperature; both purified
[5] = molecular target: ALK2 kinase domain (ALK2^KD, residues 201-499) (human) (UniProt Q04771); test: SEC; Superdex 200 Increase 10/300 GL; kinase domains alone or as a stoichiometric mixture; also run in buffers with increasing NaCl; both purified
[6] = molecular target: BMPR2^KD-EDE (BMPR2 kinase domain E464R/D487R/E489R) (human) (UniProt Q13873); test: as above
[7] = molecular target: BMPR2^KD-D485G (BMPR2 kinase domain with the PAH mutation D485G) (human) (UniProt Q13873); test: as above
[8] = molecular target: BMPR2^KD-EED (BMPR2 kinase domain E478R/E481R/D482R) (human) (UniProt Q13873); test: as above
[9] = molecular target: BMPR2 kinase domain (BMPR2^KD, residues 189-529) (human) (UniProt Q13873); test: as above; remark: listed apart in the source

BMPR2 kinase domain (BMPR2^KD, residues 189-529) (from UniProt Q13873 189-529) (domain or fragment)
binding [1]: no binding | binding [2]: no binding (tested: 100 µM)

B1: ALK2 kinase domain with the GS domain (GS-ALK2^KD, residues 172-499) (domain or fragment, UniProt Q04771 172-499)
chain: TTNVGDSTLADLLDHSCTSGSGSGLPFLVQRTVARQITLLECVGKGRYGEVWRGSWQGENVAVKIFSSRDEKSWFRETELYNTVMLRHENILGFIASDMTSRHSSTQLWLITHYHEMGSLYDYLQLTTLDTVSCLRIVLSIASGLAHLHIEIFGTQGKPAIAHRDLKSKNILVKKNGQCCIADLGLAVMHSQSTNQLDVGNNPRVGTKRYMAPEVLDETIQVDCFDSYKRVDIWAFGLVLWEVARRMVSNGIVEDYKPPFYDVVPNDPSFEDMRKVVCVDQQRPNIPNRWFSDPTLTSLAKLMKECWYQNPSARLTALRIKKTLTKID
binding [3]: binds

B2: ALK2 kinase domain (ALK2^KD, residues 201-499) (domain or fragment, human, UniProt Q04771 201-499, looked up)
chain: QRTVARQITLLECVGKGRYGEVWRGSWQGENVAVKIFSSRDEKSWFRETELYNTVMLRHENILGFIASDMTSRHSSTQLWLITHYHEMGSLYDYLQLTTLDTVSCLRIVLSIASGLAHLHIEIFGTQGKPAIAHRDLKSKNILVKKNGQCCIADLGLAVMHSQSTNQLDVGNNPRVGTKRYMAPEVLDETIQVDCFDSYKRVDIWAFGLVLWEVARRMVSNGIVEDYKPPFYDVVPNDPSFEDMRKVVCVDQQRPNIPNRWFSDPTLTSLAKLMKECWYQNPSARLTALRIKKTLTKID
notes: ALK2 (ACVR1), type I BMP receptor, kinase domain without the GS domain, residues 201-499; TEV site between His tag and kinase domain; also called ACVR1; ActRIA; source: SF9 insect cells, purified (Ni-NTA, TEV cleavage, SEC); not shown: His tag, N-terminal, cleaved
binding [4]: no binding (tested: 100 µM) | binding [5]: no binding | binding [6]: no binding | binding [7]: no binding | binding [8]: binds weakly

B3: ALK2^KD-KK (ALK2 kinase domain K492A/K493A) (domain or fragment, UniProt Q04771 201-499)
chain: QRTVARQITLLECVGKGRYGEVWRGSWQGENVAVKIFSSRDEKSWFRETELYNTVMLRHENILGFIASDMTSRHSSTQLWLITHYHEMGSLYDYLQLTTLDTVSCLRIVLSIASGLAHLHIEIFGTQGKPAIAHRDLKSKNILVKKNGQCCIADLGLAVMHSQSTNQLDVGNNPRVGTKRYMAPEVLDETIQVDCFDSYKRVDIWAFGLVLWEVARRMVSNGIVEDYKPPFYDVVPNDPSFEDMRKVVCVDQQRPNIPNRWFSDPTLTSLAKLMKECWYQNPSARLTALRIAATLTKID
binding [9]: no binding

B4: ALK2^KD-K493A (ALK2 kinase domain K493A) (domain or fragment, UniProt Q04771 201-499)
chain: QRTVARQITLLECVGKGRYGEVWRGSWQGENVAVKIFSSRDEKSWFRETELYNTVMLRHENILGFIASDMTSRHSSTQLWLITHYHEMGSLYDYLQLTTLDTVSCLRIVLSIASGLAHLHIEIFGTQGKPAIAHRDLKSKNILVKKNGQCCIADLGLAVMHSQSTNQLDVGNNPRVGTKRYMAPEVLDETIQVDCFDSYKRVDIWAFGLVLWEVARRMVSNGIVEDYKPPFYDVVPNDPSFEDMRKVVCVDQQRPNIPNRWFSDPTLTSLAKLMKECWYQNPSARLTALRIKATLTKID
binding [9]: no binding
